Drawing on paper PMC8045197, this text covers binding for two molecules.

Sequences of proteins named here, by UniProt entry; tags and fusion partners are left off.
UniProt P49759: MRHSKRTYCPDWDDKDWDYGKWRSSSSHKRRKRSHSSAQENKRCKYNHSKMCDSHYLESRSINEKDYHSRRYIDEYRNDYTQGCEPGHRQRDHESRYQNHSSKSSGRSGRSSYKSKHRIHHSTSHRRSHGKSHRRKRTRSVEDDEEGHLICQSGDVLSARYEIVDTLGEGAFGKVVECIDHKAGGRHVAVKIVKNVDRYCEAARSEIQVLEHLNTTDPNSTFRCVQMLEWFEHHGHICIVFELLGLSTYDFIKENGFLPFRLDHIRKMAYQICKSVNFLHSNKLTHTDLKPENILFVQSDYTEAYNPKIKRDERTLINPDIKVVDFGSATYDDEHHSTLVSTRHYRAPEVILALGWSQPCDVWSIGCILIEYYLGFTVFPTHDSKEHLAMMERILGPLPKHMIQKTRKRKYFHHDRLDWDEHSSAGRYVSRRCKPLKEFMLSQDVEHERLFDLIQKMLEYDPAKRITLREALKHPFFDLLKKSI

Results are given in words; binding and its absence hold for the method and conditions named. Binding seen in cells or lysates may run through a third protein. Some entries that bind do so weakly or less than the wild type. For some assays here: Where a sequence is shown, tags or fusion partners need not be part of it.

The target in one assay is HA-tagged CLK1 (human) (UniProt P49759). As to the kind of experiment: co-IP; PANC-1, BxPC-3 (and 293T) cells transfected with plasmids encoding HA-CLK1 and Flag-SRSF5; RIPA Lysis Buffer; co-immunoprecipitation and western blot.
For assay [1], the target named is endogenous CLK1 (human (endogenous in PANC-1)) (UniProt P49759). As to the kind of experiment: co-IP; endogenous proteins in PANC-1 cell lysates; immunoprecipitation with an anti-CLK1 or anti-SRSF5 antibody, normal IgG as control; western blot. A general note: Immunoblotting shows a protein as a band on a membrane.

B1: Flag-tagged SRSF5 (protein, UniProt Q13243 1-272)
chain: MSGCRVFIGRLNPAAREKDVERFFKGYGRIRDIDLKRGFGFVEFEDPRDADDAVYELDGKELCSERVTIEHARARSRGGRGRGRYSDRFSSRRPRNDRRNAPPVRTENRLIVENLSSRVSWQDLKDFMRQAGEVTFADAHRPKLNEGVVEFASYGDLKNAIEKLSGKEINGRKIKLIEGSKRHSRSRSRSRSRTRSSSRSRSRSRSRSRKSYSRSRSRSRSRSRSKSRSVSRSPVPEKSQKRGSSSRSKSPASVDRQRSRSRSRSRSVDSGN
With B1, the binding result in the assay with HA-tagged CLK1 (human) is listed as “binds”.

B2: endogenous SRSF5 (protein, UniProt Q13243 1-272)
chain: B1 chain
B2: the binding entry in assay [1] is “binds”.
